According to publication PMC8384837:
Numbering of substitutions follows the chain as printed. Some of the results follow. For some assays here: At the low end of the ranking, values are background and their order means little. For some assays here: The source does not settle which construct or isoform was used.

Assays:
Settings in all cases: yeast three-hybrid, YBZ-1, SC-Leu-His + 0.5 mM 3-AT, 4 days
[1] = target: T1, PUM1 PUF domain R5-WHV C1007W + R1008H + Q1011V (Homo sapiens) (UniProt Q14671)
T1 sequence: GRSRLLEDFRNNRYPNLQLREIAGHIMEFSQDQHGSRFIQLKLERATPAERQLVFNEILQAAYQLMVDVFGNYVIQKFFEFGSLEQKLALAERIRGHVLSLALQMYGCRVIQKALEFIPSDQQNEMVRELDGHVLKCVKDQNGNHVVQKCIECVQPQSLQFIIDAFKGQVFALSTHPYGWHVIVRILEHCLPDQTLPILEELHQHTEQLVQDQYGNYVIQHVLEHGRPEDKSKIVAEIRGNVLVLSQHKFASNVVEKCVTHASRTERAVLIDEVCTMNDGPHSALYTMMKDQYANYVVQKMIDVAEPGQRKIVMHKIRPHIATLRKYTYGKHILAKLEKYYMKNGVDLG

[2] = target: T2, PUM1 PUF domain R5-WSR C1007W + R1008S + Q1011R (UniProt Q14671)
T2 sequence: T1 sequence with H181S, V184R

[3] = target: T3, PUM1 PUF domain R5-YNG C1007Y + R1008N + Q1011G (UniProt Q14671)
T3 sequence: T1 sequence with W180Y, H181N, V184G

[4] = target: T4, PUM1 PUF domain R1-QFR R2-VFQ R7-NPG S863Q + R864F + Q867R + N899V + Y900F + S1079N + N1080P + E1083G (UniProt Q14671)
T4 sequence: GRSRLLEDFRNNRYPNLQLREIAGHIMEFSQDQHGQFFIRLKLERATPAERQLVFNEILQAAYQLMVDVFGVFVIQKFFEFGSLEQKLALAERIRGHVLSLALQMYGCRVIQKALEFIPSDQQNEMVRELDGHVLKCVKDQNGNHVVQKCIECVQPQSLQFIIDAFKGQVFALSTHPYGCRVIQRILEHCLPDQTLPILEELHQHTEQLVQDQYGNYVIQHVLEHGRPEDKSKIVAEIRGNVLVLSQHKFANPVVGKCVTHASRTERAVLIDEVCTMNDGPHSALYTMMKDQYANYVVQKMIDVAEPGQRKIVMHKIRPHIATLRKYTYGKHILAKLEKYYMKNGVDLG

[5] = target: T5, PUM1 PUF domain R3-THE R4-TFR C935T + R936H + Q939E + N971T + H972F + Q975R (UniProt Q14671)
T5 sequence: T1 sequence with C108T, R109H, Q112E, N144T, H145F, Q148R, W180C, H181R, V184Q

[6] = target: T6, PUM1 PUF domain R3-THE R4-TFR R7-NPG C935T + R936H + Q939E + N971T + H972F + Q975R + S1079N + N1080P + E1083G (UniProt Q14671)
T6 sequence: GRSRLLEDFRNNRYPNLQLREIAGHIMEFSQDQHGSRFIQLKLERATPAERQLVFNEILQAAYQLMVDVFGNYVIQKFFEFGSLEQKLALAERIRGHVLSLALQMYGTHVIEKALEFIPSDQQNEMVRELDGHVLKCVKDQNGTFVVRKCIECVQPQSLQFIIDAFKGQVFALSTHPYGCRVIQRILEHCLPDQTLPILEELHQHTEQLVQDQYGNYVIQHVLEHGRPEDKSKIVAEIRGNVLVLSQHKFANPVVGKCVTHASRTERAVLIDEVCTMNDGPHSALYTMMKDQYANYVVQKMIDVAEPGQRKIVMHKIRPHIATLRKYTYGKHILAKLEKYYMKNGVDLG

[7] = target: T7, PUM1 PUF domain R5-PHQ R6-SWD C1007P + R1008H + N1043S + Y1044W + Q1047D (UniProt Q14671)
T7 sequence: T1 sequence with W180P, V184Q, N216S, Y217W, Q220D

[8] = target: T8, PUM1 PUF domain R6-SWD R7-NPG N1043S + Y1044W + Q1047D + S1079N + N1080P + E1083G (Homo sapiens) (UniProt Q14671)
T8 sequence: T4 sequence with Q36S, F37R, R40Q, V72N, F73Y, N216S, Y217W, Q220D

[9] = target: T9, PUM1 PUF domain R3-THE R4-TFR R7-NPG C935T + R936H + Q939E + N971T + H972F + Q975R + S1079N + N1080P + E1083G (Homo sapiens) (UniProt Q14671)
T9 sequence: T6 sequence

## GGCUAGAACUAGUGGAUCCCCCGGCGCCCGGCGGCUCGAGCCCGGGUAAGUGUUAAUAGUCUGCAUGCCGCCGGGCGCCAUGCCUGCAGGUCGACUCUAGAAAACAUG
[1]
  binding signal (log2 enrichment (interaction score)): -1.18
[2]
  binding signal (log2 enrichment (interaction score)): -4.98
[3]
  binding signal (log2 enrichment (interaction score)): -4.52

## GGCUAGAACUAGUGGAUCCCCCGGCGCCCGGCGGCUCGAGCCCGGGUAAGUGGUCACAGUCUGCAUGCCGCCGGGCGCCAUGCCUGCAGGUCGACUCUAGAAAACAUG
[4]
  binding signal (log2 enrichment (interaction score)): -4.83
[5]
  binding signal (log2 enrichment (interaction score)): -6.74

## GGCUAGAACUAGUGGAUCCCCCGGCGCCCGGCGGCUCGAGCCCGGGUAAGUUGAGGUUGUCUGCAUGCCGCCGGGCGCCAUGCCUGCAGGUCGACUCUAGAAAACAUG
[4]
  binding signal (log2 enrichment (interaction score)): -5.27
[5]
  binding signal (log2 enrichment (interaction score)): -8.58
[6]
  binding signal (log2 enrichment (interaction score)): -2.52
[7]
  binding signal (log2 enrichment (interaction score)): -8.4
[8]
  binding signal (log2 enrichment (interaction score)): -0.92

## GGCUAGAACUAGUGGAUCCCCCGGCGCCCGGCGGCUCGAGCCCGGGUAAGUUUCCAUAGUCUGCAUGCCGCCGGGCGCCAUGCCUGCAGGUCGACUCUAGAAAACAUG
[4]
  binding signal (log2 enrichment (interaction score)): -5.25
[5]
  binding signal (log2 enrichment (interaction score)): -6.56
[6]
  binding signal (log2 enrichment (interaction score)): -2.45
[7]
  binding signal (log2 enrichment (interaction score)): -7.14

## GGCUAGAACUAGUGGAUCCCCCGGCGCCCGGCGGCUCGAGCCCGGGUAAGUCAAGUUCGUCUGCAUGCCGCCGGGCGCCAUGCCUGCAGGUCGACUCUAGAAAACAUG
[4]
  binding signal (log2 enrichment (interaction score)): -5.54
[5]
  binding signal (log2 enrichment (interaction score)): -6.83
[9]
  binding signal (log2 enrichment (interaction score)): -1.3
[8]
  binding signal (log2 enrichment (interaction score)): -1.03

## GGCUAGAACUAGUGGAUCCCCCGGCGCCCGGCGGCUCGAGCCCGGGUAAGCAUAAGUAGUCUGCAUGCCGCCGGGCGCCAUGCCUGCAGGUCGACUCUAGAAAACAUG
[4]
  binding signal (log2 enrichment (interaction score)): -4.29
[5]
  binding signal (log2 enrichment (interaction score)): -6.84
[7]
  binding signal (log2 enrichment (interaction score)): < -7.85

## GGCUAGAACUAGUGGAUCCCCCGGCGCCCGGCGGCUCGAGCCCGGGUAAGUUUUCGUCGUCUGCAUGCCGCCGGGCGCCAUGCCUGCAGGUCGACUCUAGAAAACAUG
[4]
  binding signal (log2 enrichment (interaction score)): < -6.17
[5]
  binding signal (log2 enrichment (interaction score)): -7.51
[6]
  binding signal (log2 enrichment (interaction score)): -3.53

## GGCUAGAACUAGUGGAUCCCCCGGCGCCCGGCGGCUCGAGCCCGGGUAAGUGGAAGUAGUCUGCAUGCCGCCGGGCGCCAUGCCUGCAGGUCGACUCUAGAAAACAUG
[4]
  binding signal (log2 enrichment (interaction score)): -6.19
[5]
  binding signal (log2 enrichment (interaction score)): -6.66
[9]
  binding signal (log2 enrichment (interaction score)): -1.56
[7]
  binding signal (log2 enrichment (interaction score)): -4.7
[8]
  binding signal (log2 enrichment (interaction score)): -0.74

## GGCUAGAACUAGUGGAUCCCCCGGCGCCCGGCGGCUCGAGCCCGGGUAAGUGUAAGAAGUCUGCAUGCCGCCGGGCGCCAUGCCUGCAGGUCGACUCUAGAAAACAUG
[4]
  binding signal (log2 enrichment (interaction score)): -6.35
[5]
  binding signal (log2 enrichment (interaction score)): -8.4
[6]
  binding signal (log2 enrichment (interaction score)): -2.9
[7]
  binding signal (log2 enrichment (interaction score)): < -8.34
[8]
  binding signal (log2 enrichment (interaction score)): -0.47

## GGCUAGAACUAGUGGAUCCCCCGGCGCCCGGCGGCUCGAGCCCGGGUAAGUGGAAAAGGUCUGCAUGCCGCCGGGCGCCAUGCCUGCAGGUCGACUCUAGAAAACAUG
[4]
  binding signal (log2 enrichment (interaction score)): -4.36
[5]
  binding signal (log2 enrichment (interaction score)): < -7.03

## GGCUAGAACUAGUGGAUCCCCCGGCGCCCGGCGGCUCGAGCCCGGGUAAGUACACACAGUCUGCAUGCCGCCGGGCGCCAUGCCUGCAGGUCGACUCUAGAAAACAUG
[4]
  binding signal (log2 enrichment (interaction score)): -4.42
[5]
  binding signal (log2 enrichment (interaction score)): < -6.59
[7]
  binding signal (log2 enrichment (interaction score)): -8

## GGCUAGAACUAGUGGAUCCCCCGGCGCCCGGCGGCUCGAGCCCGGGUAAGCCGACAUUGUCUGCAUGCCGCCGGGCGCCAUGCCUGCAGGUCGACUCUAGAAAACAUG
[4]
  binding signal (log2 enrichment (interaction score)): < -6.16
[5]
  binding signal (log2 enrichment (interaction score)): -7.59
[6]
  binding signal (log2 enrichment (interaction score)): -2.35
[7]
  binding signal (log2 enrichment (interaction score)): < -7.77

## GGCUAGAACUAGUGGAUCCCCCGGCGCCCGGCGGCUCGAGCCCGGGUAAGUUGAUGUCGUCUGCAUGCCGCCGGGCGCCAUGCCUGCAGGUCGACUCUAGAAAACAUG
[4]
  binding signal (log2 enrichment (interaction score)): -5.89
[5]
  binding signal (log2 enrichment (interaction score)): -7.02
[9]
  binding signal (log2 enrichment (interaction score)): -1.6
[7]
  binding signal (log2 enrichment (interaction score)): -7.13

## GGCUAGAACUAGUGGAUCCCCCGGCGCCCGGCGGCUCGAGCCCGGGUAAGUGUAAACCGUCUGCAUGCCGCCGGGCGCCAUGCCUGCAGGUCGACUCUAGAAAACAUG
[4]
  binding signal (log2 enrichment (interaction score)): -3.18
[5]
  binding signal (log2 enrichment (interaction score)): < -7.14
[9]
  binding signal (log2 enrichment (interaction score)): < -1.16
[7]
  binding signal (log2 enrichment (interaction score)): -8.7

## GGCUAGAACUAGUGGAUCCCCCGGCGCCCGGCGGCUCGAGCCCGGGUAAGAUGACGUGGUCUGCAUGCCGCCGGGCGCCAUGCCUGCAGGUCGACUCUAGAAAACAUG
[4]
  binding signal (log2 enrichment (interaction score)): -3.66
[5]
  binding signal (log2 enrichment (interaction score)): -5.79

## GGCUAGAACUAGUGGAUCCCCCGGCGCCCGGCGGCUCGAGCCCGGGUAAGUCAACGUAGUCUGCAUGCCGCCGGGCGCCAUGCCUGCAGGUCGACUCUAGAAAACAUG
[4]
  binding signal (log2 enrichment (interaction score)): -5.64
[5]
  binding signal (log2 enrichment (interaction score)): -5.7
[6]
  binding signal (log2 enrichment (interaction score)): -2.86
[7]
  binding signal (log2 enrichment (interaction score)): -7.19
[8]
  binding signal (log2 enrichment (interaction score)): -0.29

## GGCUAGAACUAGUGGAUCCCCCGGCGCCCGGCGGCUCGAGCCCGGGUAAGUGAACGAAGUCUGCAUGCCGCCGGGCGCCAUGCCUGCAGGUCGACUCUAGAAAACAUG
[4]
  binding signal (log2 enrichment (interaction score)): -5.93
[5]
  binding signal (log2 enrichment (interaction score)): -7.46
[9]
  binding signal (log2 enrichment (interaction score)): < -1.96
[8]
  binding signal (log2 enrichment (interaction score)): -1.43

## GGCUAGAACUAGUGGAUCCCCCGGCGCCCGGCGGCUCGAGCCCGGGUAAGAUGGCGUCGUCUGCAUGCCGCCGGGCGCCAUGCCUGCAGGUCGACUCUAGAAAACAUG
[4]
  binding signal (log2 enrichment (interaction score)): -6.42
[5]
  binding signal (log2 enrichment (interaction score)): -6.87
[9]
  binding signal (log2 enrichment (interaction score)): -1.51

## GGCUAGAACUAGUGGAUCCCCCGGCGCCCGGCGGCUCGAGCCCGGGUAAGGUAAAGUCGUCUGCAUGCCGCCGGGCGCCAUGCCUGCAGGUCGACUCUAGAAAACAUG
[4]
  binding signal (log2 enrichment (interaction score)): -6.23
[5]
  binding signal (log2 enrichment (interaction score)): -6.18
[9]
  binding signal (log2 enrichment (interaction score)): -1.84
